From paper doi:10.1101/2022.09.20.508642
Where two headings read alike, the source gives them in different places. No constants are given. Whether binding was seen depends on the method and setting. For part of these data: In cells and extracts the contact can be indirect. Some results given as binding are weak or reduced against the parent protein; the word gives no strength. Where a sequence is shown, tags or fusion partners need not be part of it.

T1: STRUBBELIG (SUB), C-terminal fluorescent protein fusion expressed in Arabidopsis (Arabidopsis thaliana) (UniProt Q8RWZ1)
T1 sequence: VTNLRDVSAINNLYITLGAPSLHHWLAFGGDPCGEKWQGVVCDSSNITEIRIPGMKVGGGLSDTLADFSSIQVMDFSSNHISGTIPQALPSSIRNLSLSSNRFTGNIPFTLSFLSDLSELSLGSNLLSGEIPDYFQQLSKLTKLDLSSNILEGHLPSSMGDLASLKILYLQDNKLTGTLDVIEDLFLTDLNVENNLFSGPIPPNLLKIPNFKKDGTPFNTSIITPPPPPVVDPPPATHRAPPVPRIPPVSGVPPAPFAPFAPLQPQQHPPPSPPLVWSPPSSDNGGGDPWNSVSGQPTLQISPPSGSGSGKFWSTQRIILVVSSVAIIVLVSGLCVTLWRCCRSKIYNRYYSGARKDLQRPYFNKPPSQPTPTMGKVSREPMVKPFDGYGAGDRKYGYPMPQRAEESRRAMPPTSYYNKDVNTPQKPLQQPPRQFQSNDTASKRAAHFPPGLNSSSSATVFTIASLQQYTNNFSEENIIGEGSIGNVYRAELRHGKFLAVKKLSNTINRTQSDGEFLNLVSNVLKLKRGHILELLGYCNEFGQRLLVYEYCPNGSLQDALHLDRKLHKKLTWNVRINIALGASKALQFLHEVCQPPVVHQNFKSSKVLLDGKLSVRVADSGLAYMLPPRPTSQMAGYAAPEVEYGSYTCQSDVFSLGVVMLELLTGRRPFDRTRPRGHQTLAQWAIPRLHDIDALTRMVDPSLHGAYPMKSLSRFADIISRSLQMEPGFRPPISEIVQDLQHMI


Key:
[1] = molecular target: STRUBBELIG (SUB) extracellular domain, yeast two-hybrid fusion (Arabidopsis thaliana) (UniProt Q8RWZ1); assay: two-hybrid
[2] = molecular target: T1, STRUBBELIG (SUB), C-terminal fluorescent protein fusion expressed in Arabidopsis (Arabidopsis thaliana); assay: FRET or BRET
[3] = molecular target: T1, STRUBBELIG (SUB), C-terminal fluorescent protein fusion expressed in Arabidopsis (Arabidopsis thaliana); assay: FRET or BRET; remark: listed apart in the source

binding [1]	binding [2]	binding [3]	Binder
binds			STRUBBELIG (SUB) extracellular domain, yeast two-hybrid fusion (domain or fragment, UniProt Q8RWZ1 25-341) VTNLRDVSAINNLYITLGAPSLHHWLAFGGDPCGEKWQGVVCDSSNITEIRIPGMKVGGGLSDTLADFSSIQVMDFSSNHISGTIPQALPSSIRNLSLSSNRFTGNIPFTLSFLSDLSELSLGSNLLSGEIPDYFQQLSKLTKLDLSSNILEGHLPSSMGDLASLKILYLQDNKLTGTLDVIEDLFLTDLNVENNLFSGPIPPNLLKIPNFKKDGTPFNTSIITPPPPPVVDPPPATHRAPPVPRIPPVSGVPPAPFAPFAPLQPQQHPPPSPPLVWSPPSSDNGGGDPWNSVSGQPTLQISPPSGSGSGKFWSTQR
	binds	binds	STRUBBELIG (SUB), C-terminal fluorescent protein fusion expressed in Arabidopsis (receptor, UniProt Q8RWZ1 25-768) VTNLRDVSAINNLYITLGAPSLHHWLAFGGDPCGEKWQGVVCDSSNITEIRIPGMKVGGGLSDTLADFSSIQVMDFSSNHISGTIPQALPSSIRNLSLSSNRFTGNIPFTLSFLSDLSELSLGSNLLSGEIPDYFQQLSKLTKLDLSSNILEGHLPSSMGDLASLKILYLQDNKLTGTLDVIEDLFLTDLNVENNLFSGPIPPNLLKIPNFKKDGTPFNTSIITPPPPPVVDPPPATHRAPPVPRIPPVSGVPPAPFAPFAPLQPQQHPPPSPPLVWSPPSSDNGGGDPWNSVSGQPTLQISPPSGSGSGKFWSTQRIILVVSSVAIIVLVSGLCVTLWRCCRSKIYNRYYSGARKDLQRPYFNKPPSQPTPTMGKVSREPMVKPFDGYGAGDRKYGYPMPQRAEESRRAMPPTSYYNKDVNTPQKPLQQPPRQFQSNDTASKRAAHFPPGLNSSSSATVFTIASLQQYTNNFSEENIIGEGSIGNVYRAELRHGKFLAVKKLSNTINRTQSDGEFLNLVSNVLKLKRGHILELLGYCNEFGQRLLVYEYCPNGSLQDALHLDRKLHKKLTWNVRINIALGASKALQFLHEVCQPPVVHQNFKSSKVLLDGKLSVRVADSGLAYMLPPRPTSQMAGYAAPEVEYGSYTCQSDVFSLGVVMLELLTGRRPFDRTRPRGHQTLAQWAIPRLHDIDALTRMVDPSLHGAYPMKSLSRFADIISRSLQMEPGFRPPISEIVQDLQHMI
